From US20020037840A1 (GENETICS INSTITUTE, published 2002)
No constants are given. Whether binding was seen depends on the method and setting. Binding seen in cells or lysates may run through a third protein. Some results given as binding are weak or reduced against the parent protein; the word gives no strength. Sequences can lack the tags named with a protein. One block for each binder: values may come before it.

Assays:
[1] = target: T1, full length form of human PSGL-1 (human, UniProt Q14242 42-412); assay: co-immunoprecipitation from COS cell lysates with anti-PSGL-1 antibody 2G3, anti-T7 Western blot
T1 construct: whole, on cells; Expressed whole in COS cells and precipitated from the cell lysate with the biotinylated anti-PSGL-1 antibody 2G3; also called P-selectin glycoprotein ligand; CD162
T1 sequence (looked up): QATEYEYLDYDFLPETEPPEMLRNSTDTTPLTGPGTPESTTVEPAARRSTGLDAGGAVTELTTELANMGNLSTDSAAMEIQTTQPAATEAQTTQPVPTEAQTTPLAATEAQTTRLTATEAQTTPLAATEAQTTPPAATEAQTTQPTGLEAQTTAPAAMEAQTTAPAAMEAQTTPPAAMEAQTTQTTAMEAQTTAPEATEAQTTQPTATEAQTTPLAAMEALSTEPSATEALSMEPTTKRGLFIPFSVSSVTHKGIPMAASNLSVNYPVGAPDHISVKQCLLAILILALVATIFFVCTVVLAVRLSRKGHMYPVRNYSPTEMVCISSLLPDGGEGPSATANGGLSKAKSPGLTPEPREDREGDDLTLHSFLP
Procedure: COS cells were transfected with T7-tagged forms of SLIC-1 as described in Example 3. Vector pMT-PL85A (Genetics Institute) was included in a subset of samples to transiently overexpress the full length form of human PSGL-1. Cell lysis was carried out as described above in 900 μL/dish of lysis buffer consisting of 20 mM Tris-HCl, pH 7.4, 137 mM NaCl, 0.05% Triton-X and protease inhibitors (Hildt, E and Oess, S J 1999 J. Exp. Med. 189(11): 1707-1714). A small volume of cleared cell lysate was used for Western Blotting to detect overexpressed protein in the whole cell lysate and for spectrophotometric measurement of the protein content. A volume of 300 μL of each lysate was used for co-immunoprecipitation studies with either 2.5 μg of biotinylated monoclonal mouse anti-PSGL-1 antibody (antibody 2G3, Genetics Institute) or a biotinylated control antibody (SIGMA). The samples were agitated at 4° C. for 5 hours, and immuncomplexes were precipitated with streptavidin agarose beads (Pierce) under the same conditions for 1 hour. […] The presence of T7-tagged SLIC-1 protein in the samples was detected by Western blot analysis using an anti-T7 Horse Radish Peroxidase LumiBlot Kit (Novagen) according to the manufacturer's instructions.

[2] = target: T1, full length form of human PSGL-1; assay: co-immunoprecipitation from COS cell lysates, Western blot

- binding [1]: binds
B1: T7-tagged polypeptide comprising amino acid residues 1-226 of SLIC-1 (protein)
chain: MASMTGGQQMGMASPEHPGSPGCMGPITQCTARTQQEAPATGPDLPHPGPDGHLDTHSGLSSNSSMTTRELQQYWQNQKCRWKHVKLLFEIASARIEERKVSKFVVYQIIVIQTGSFDNNKAVLERRYSDFAKLQKALLKTFREEIEDVEFPRKHLTGNFAEEMICERRRALQEYLGLLYAIRCVRRSREFLDFLTRPELREAFGCLRAGQYPRALELLLRVLPLQEKLTAHCPAAA

- binding [2]: binds
- binding [1]: binds
B2: full length SLIC-1 as a fusion protein with a T7 protein tag (protein)
chain: MASMTGGQQMGMASPEHPGSPGCMGPITQCTARTQQEAPATGPDLPHPGPDGHLDTHSGLSSNSSMTTRELQQYWQNQKCRWKHVKLLFEIASARIEERKVSKFVVYQIIVIQTGSFDNNKAVLERRYSDFAKLQKALLKTFREEIEDVEFPRKHLTGNFAEEMICERRRALQEYLGLLYAIRCVRRSREFLDFLTRPELREAFGCLRAGQYPRALELLLRVLPLQEKLTAHCPAAAVPALCAVLLCHRDLDRPAEAFAAGERALQRLQAREGHRYYAPLLDAMVRLAYALGKDFVTLQERLEESQLRRPTPRGITLKELTVREYLH
